Experimental data reported in PMC13572447.
Results are given in words; binding and its absence hold for the method and conditions named. In cells and extracts the contact can be indirect. Some entries that bind do so weakly or less than the wild type. Sequences can lack the tags named with a protein.

Chains of the proteins cited; added tags and fusions are not shown.
UniProt P45974: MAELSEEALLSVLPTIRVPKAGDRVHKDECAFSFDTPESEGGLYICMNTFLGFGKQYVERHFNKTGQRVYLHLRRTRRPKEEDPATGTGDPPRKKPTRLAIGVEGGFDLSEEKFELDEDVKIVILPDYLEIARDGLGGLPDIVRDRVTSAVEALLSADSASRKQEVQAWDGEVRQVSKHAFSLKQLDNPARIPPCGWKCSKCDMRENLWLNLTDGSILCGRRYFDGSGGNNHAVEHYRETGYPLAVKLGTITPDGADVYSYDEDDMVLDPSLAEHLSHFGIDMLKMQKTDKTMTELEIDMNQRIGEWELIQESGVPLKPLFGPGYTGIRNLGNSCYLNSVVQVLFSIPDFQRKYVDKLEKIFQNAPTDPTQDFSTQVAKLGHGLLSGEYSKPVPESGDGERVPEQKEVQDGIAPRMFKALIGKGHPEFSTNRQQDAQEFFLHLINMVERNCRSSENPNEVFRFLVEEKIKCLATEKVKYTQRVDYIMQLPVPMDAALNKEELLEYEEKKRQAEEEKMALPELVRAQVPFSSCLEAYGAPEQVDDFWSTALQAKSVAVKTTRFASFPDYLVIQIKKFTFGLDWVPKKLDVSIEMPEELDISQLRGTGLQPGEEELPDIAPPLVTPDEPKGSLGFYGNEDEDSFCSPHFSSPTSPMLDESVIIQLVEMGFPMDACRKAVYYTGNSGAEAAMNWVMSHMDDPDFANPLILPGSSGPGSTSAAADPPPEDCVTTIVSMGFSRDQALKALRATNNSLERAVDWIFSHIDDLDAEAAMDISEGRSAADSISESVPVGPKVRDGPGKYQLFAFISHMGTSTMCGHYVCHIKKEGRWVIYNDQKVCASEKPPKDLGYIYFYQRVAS

Target: T1, HA-SDE2UBL-PA activity-based probe (human) (UniProt Q6IQ49)
T1 sequence (chain, C-terminal propargylamide, Gly77 replaced with a propargyl electrophilic warhead): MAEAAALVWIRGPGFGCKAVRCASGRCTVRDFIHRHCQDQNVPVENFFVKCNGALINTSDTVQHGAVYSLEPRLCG
Assay: co-IP; HEK293 lysate (500 µg) with 1 µM HA-SDE2UBL-PA, 45 min at 37 °C, quenched with 0.4% SDS and 0.5% NP-40, anti-HA magnetic beads, immunoblot for USP5, USP13 and HA; covalent adducts; only the target purified

- binding: binds
Substance: endogenous USP5 of HEK293 cell lysate (from UniProt P45974 1-858) (enzyme)
